Among the data in PMC10264389 are binding values, retold here.

Chains of the proteins cited; added tags and fusions are not shown. Lines headed by an entry give the natural chain unless they say otherwise; changes in a name come on top.
UniProt Q9H1E5: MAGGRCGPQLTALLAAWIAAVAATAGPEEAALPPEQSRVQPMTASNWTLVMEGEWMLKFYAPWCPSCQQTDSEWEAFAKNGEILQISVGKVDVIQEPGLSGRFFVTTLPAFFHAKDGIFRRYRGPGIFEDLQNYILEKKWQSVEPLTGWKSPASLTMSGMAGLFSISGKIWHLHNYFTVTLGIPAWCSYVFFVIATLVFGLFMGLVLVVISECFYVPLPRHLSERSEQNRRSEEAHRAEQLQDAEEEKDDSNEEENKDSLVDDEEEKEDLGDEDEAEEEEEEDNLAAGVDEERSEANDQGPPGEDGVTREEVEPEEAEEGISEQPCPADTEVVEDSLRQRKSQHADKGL

In one test the target is T1, HALO-NESPRIN3α (UniProt Q4FZC9).
T1 sequence: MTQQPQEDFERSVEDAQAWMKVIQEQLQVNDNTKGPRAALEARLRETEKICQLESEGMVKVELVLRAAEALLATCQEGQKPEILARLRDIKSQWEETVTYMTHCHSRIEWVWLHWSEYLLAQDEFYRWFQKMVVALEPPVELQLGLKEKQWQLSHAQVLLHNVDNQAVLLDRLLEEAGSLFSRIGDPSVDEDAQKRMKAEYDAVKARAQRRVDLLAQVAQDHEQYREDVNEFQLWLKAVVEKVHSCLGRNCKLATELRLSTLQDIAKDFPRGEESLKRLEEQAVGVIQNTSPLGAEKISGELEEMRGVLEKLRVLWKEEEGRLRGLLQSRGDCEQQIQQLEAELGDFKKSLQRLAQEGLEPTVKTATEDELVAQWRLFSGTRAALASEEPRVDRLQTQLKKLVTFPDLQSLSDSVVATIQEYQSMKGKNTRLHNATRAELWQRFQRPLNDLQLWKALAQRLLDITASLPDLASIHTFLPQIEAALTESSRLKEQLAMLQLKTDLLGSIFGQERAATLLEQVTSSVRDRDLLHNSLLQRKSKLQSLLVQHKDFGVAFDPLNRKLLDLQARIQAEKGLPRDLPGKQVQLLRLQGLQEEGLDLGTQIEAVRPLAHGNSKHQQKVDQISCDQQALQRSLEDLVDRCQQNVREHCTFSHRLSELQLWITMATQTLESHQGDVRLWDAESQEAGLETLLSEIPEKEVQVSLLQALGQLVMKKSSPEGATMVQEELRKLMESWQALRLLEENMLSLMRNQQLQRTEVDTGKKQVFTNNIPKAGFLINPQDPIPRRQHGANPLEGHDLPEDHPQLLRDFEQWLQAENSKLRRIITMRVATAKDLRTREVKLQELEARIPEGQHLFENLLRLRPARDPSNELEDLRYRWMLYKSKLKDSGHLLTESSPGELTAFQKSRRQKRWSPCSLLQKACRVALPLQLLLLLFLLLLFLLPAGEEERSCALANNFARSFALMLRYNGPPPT
The experiment in a line: co-IP; HEK293 co-transfected with HALO-NESPRIN3α, GFP-SUN1 and TMX4-V5 or TMX4C67A-V5; HALO-NESPRIN3α isolated with HALO-Trap agarose beads, 2 h at 4 °C; non-reducing and reducing gels; western blot with anti-V5 and anti-HALO.

The next test deals with TMX4_(C67A)-V5 (UniProt Q9H1E5). The experiment in a line: co-IP; HEK293 co-transfected with HALO-NESPRIN3α, GFP-SUN1 and TMX4-V5 or TMX4C67A-V5; immunoisolation from lysates with anti-V5 antibody; non-reducing gel; western blot with anti-V5, anti-HALO and anti-GFP; mixed disulfides.

These are yes or no findings as the source states them, for the method shown. Binding seen in cells or lysates may run through a third protein. A result given as binding can be weak or reduced; the word gives no strength.

For “TMX4_(C67A)-V5 (from UniProt Q9H1E5) (enzyme)”, the binding result with HALO-NESPRIN3α was “binds”.

B1: HALO-NESPRIN3α (protein, UniProt Q4FZC9 1-975)
chain: MTQQPQEDFERSVEDAQAWMKVIQEQLQVNDNTKGPRAALEARLRETEKICQLESEGMVKVELVLRAAEALLATCQEGQKPEILARLRDIKSQWEETVTYMTHCHSRIEWVWLHWSEYLLAQDEFYRWFQKMVVALEPPVELQLGLKEKQWQLSHAQVLLHNVDNQAVLLDRLLEEAGSLFSRIGDPSVDEDAQKRMKAEYDAVKARAQRRVDLLAQVAQDHEQYREDVNEFQLWLKAVVEKVHSCLGRNCKLATELRLSTLQDIAKDFPRGEESLKRLEEQAVGVIQNTSPLGAEKISGELEEMRGVLEKLRVLWKEEEGRLRGLLQSRGDCEQQIQQLEAELGDFKKSLQRLAQEGLEPTVKTATEDELVAQWRLFSGTRAALASEEPRVDRLQTQLKKLVTFPDLQSLSDSVVATIQEYQSMKGKNTRLHNATRAELWQRFQRPLNDLQLWKALAQRLLDITASLPDLASIHTFLPQIEAALTESSRLKEQLAMLQLKTDLLGSIFGQERAATLLEQVTSSVRDRDLLHNSLLQRKSKLQSLLVQHKDFGVAFDPLNRKLLDLQARIQAEKGLPRDLPGKQVQLLRLQGLQEEGLDLGTQIEAVRPLAHGNSKHQQKVDQISCDQQALQRSLEDLVDRCQQNVREHCTFSHRLSELQLWITMATQTLESHQGDVRLWDAESQEAGLETLLSEIPEKEVQVSLLQALGQLVMKKSSPEGATMVQEELRKLMESWQALRLLEENMLSLMRNQQLQRTEVDTGKKQVFTNNIPKAGFLINPQDPIPRRQHGANPLEGHDLPEDHPQLLRDFEQWLQAENSKLRRIITMRVATAKDLRTREVKLQELEARIPEGQHLFENLLRLRPARDPSNELEDLRYRWMLYKSKLKDSGHLLTESSPGELTAFQKSRRQKRWSPCSLLQKACRVALPLQLLLLLFLLLLFLLPAGEEERSCALANNFARSFALMLRYNGPPPT
Turning to B1, the binding entry with TMX4_(C67A)-V5 is recorded as “binds”.
